Among the data in patent publication US20070065439A1 are binding values, retold here.

These are yes or no findings as the source states them, for the method shown.

The target of one experiment is IL-1β mutated at K103. The experiment can be described thus: binding to site-directed IL-1β mutant; X = abrogation of binding.
For the next experiment, the target named is IL-1β mutated at E105. Described as above.

B1: 5.36.1 (antibody, human IgG4, V domains shown)
VH: QVQLQQSGPGLVKPSQTLSLTCAISGDSVSSNSAAWNWIRQSPSRGLEWLGRTYYRSKWYNDYAVSVKSRITINPDTSKNQFSLQLNSVTPEDTAVYYCAREEQQLVRYYYYYGMDVWGQGTTVTVS
VL: DIVMTQTPLSLSVTPGQPASISCKSSQSLLHSDGRTYLYWYLQRPGQPPQLLIYEASYRFSGVPDRFSGSGSGTDFTLKISRVEAEDVGIYYCMQSIQLPRTFGQGTRLEIK
For B1, the binding entry with IL-1β mutated at K103 and with IL-1β mutated at E105 was “no binding” each time.
